Data from the supplement of paper PMC10077471.
Whole data set: some 1,900 compounds, median “excess over highest single agent (ExcessHSA) synergy score, 6x6 matrix” near -83, cut for the lowest 2% near -370. Some of the results follow.

Each compound was assayed on NCI-H446 (assay: excess over highest single agent (ExcessHSA) synergy score, 6x6 matrix; higher = less synergy (more negative = stronger synergy)). Details: 72 h; CellTiter-Glo viability.

| SMILES | excess over highest single agent |
| --- | --- |
| CCCCCCCCCCCCCCCC(=O)OC[C@@H](NC(=O)C(Cl)Cl)[C@H](O)c1ccc([N+](=O)[O-])cc1 + Cc1sc2c(c1C)C(c1ccc(Cl)cc1)=N[C@@H](CC(=O)OC(C)(C)C)c1nnc(C)n1-2 [NCGC00250412-19] | 174 |
| CC1(C)CC(=O)c2c(C(F)(F)F)nn(-c3ccc(C(N)=O)c(N[C@H]4CC[C@H](O)CC4)c3)c2C1 + Cc1sc2c(c1C)C(c1ccc(Cl)cc1)=N[C@@H](CC(=O)OC(C)(C)C)c1nnc(C)n1-2 [NCGC00250412-19] | -379 |
| O=C(O)/C=C/c1ccc(O)c(O)c1 + Cc1sc2c(c1C)C(c1ccc(Cl)cc1)=N[C@@H](CC(=O)OC(C)(C)C)c1nnc(C)n1-2 [NCGC00250412-19] | -109 |
| CCCCc1nc2cc(/C=C/C(=O)NO)ccc2n1CCN(CC)CC + Cc1sc2c(c1C)C(c1ccc(Cl)cc1)=N[C@@H](CC(=O)OC(C)(C)C)c1nnc(C)n1-2 [NCGC00250412-19] | -123 |
| COc1ccc(OC)c(-c2nnc3ccc(-c4ccc(OC)c(O[C@@H]5CCOC5)c4)nn23)c1 + Cc1sc2c(c1C)C(c1ccc(Cl)cc1)=N[C@@H](CC(=O)OC(C)(C)C)c1nnc(C)n1-2 [NCGC00250412-19] | -99.4 |
| Oc1ccc2ccccc2c1SSc1c(O)ccc2ccccc12 + Cc1sc2c(c1C)C(c1ccc(Cl)cc1)=N[C@@H](CC(=O)OC(C)(C)C)c1nnc(C)n1-2 [NCGC00250412-19] | 56.9 |
| COc1cc2nc(N(C)CCCNC(=O)C3CCCO3)nc(N)c2cc1OC (centres undefined) + Cc1sc2c(c1C)C(c1ccc(Cl)cc1)=N[C@@H](CC(=O)OC(C)(C)C)c1nnc(C)n1-2 [NCGC00250412-19] | 6.26 |
| CCN1CCN(CC(=O)Nc2ccc(-c3cccc4c(=O)cc(N5CCOCC5)oc34)c3sc4ccccc4c23)CC1 + Cc1sc2c(c1C)C(c1ccc(Cl)cc1)=N[C@@H](CC(=O)OC(C)(C)C)c1nnc(C)n1-2 [NCGC00250412-19] | -383 |
| COc1ccc(-c2ccc3ncc4c(c3c2)n(-c2ccc(N3CCNCC3)c(C(F)(F)F)c2)c(=O)n4C)cn1 + Cc1sc2c(c1C)C(c1ccc(Cl)cc1)=N[C@@H](CC(=O)OC(C)(C)C)c1nnc(C)n1-2 [NCGC00250412-19] | -20.2 |
| CC(C)c1cc(-c2n[nH]c(=O)n2-c2ccc3c(ccn3C)c2)c(O)cc1O + Cc1sc2c(c1C)C(c1ccc(Cl)cc1)=N[C@@H](CC(=O)OC(C)(C)C)c1nnc(C)n1-2 [NCGC00250412-19] | -243 |
| O=C(O)C1CCCN(CCC=C(c2ccccc2)c2ccccc2)C1 (centres undefined) + Cc1sc2c(c1C)C(c1ccc(Cl)cc1)=N[C@@H](CC(=O)OC(C)(C)C)c1nnc(C)n1-2 [NCGC00250412-19] | -163 |
| CC(=O)O[C@]1(C(C)=O)CC[C@H]2[C@@H]3C=C(Cl)C4=CC(=O)[C@@H]5C[C@@H]5[C@]4(C)[C@H]3CC[C@@]21C + Cc1sc2c(c1C)C(c1ccc(Cl)cc1)=N[C@@H](CC(=O)OC(C)(C)C)c1nnc(C)n1-2 [NCGC00250412-19] | 36.6 |
| C[C@]12CC[C@H]3[C@@H](CCC4=CC(=O)CC[C@@H]43)[C@@H]1CC[C@@H]2OC(=O)CCc1ccccc1 + Cc1sc2c(c1C)C(c1ccc(Cl)cc1)=N[C@@H](CC(=O)OC(C)(C)C)c1nnc(C)n1-2 [NCGC00250412-19] | -103 |
| Cn1cc(-c2cnn3c(N)c(Br)c([C@@H]4CCCNC4)nc23)cn1 + Cc1sc2c(c1C)C(c1ccc(Cl)cc1)=N[C@@H](CC(=O)OC(C)(C)C)c1nnc(C)n1-2 [NCGC00250412-19] | -33.2 |
| N[C@@H]1CONC1=O + Cc1sc2c(c1C)C(c1ccc(Cl)cc1)=N[C@@H](CC(=O)OC(C)(C)C)c1nnc(C)n1-2 [NCGC00250412-19] | -38.4 |
| C=C1C[C@@]2(O)O[C@@]3(C[C@H]2C(C)C)[C@@H](C)CC[C@@H]13 + Cc1sc2c(c1C)C(c1ccc(Cl)cc1)=N[C@@H](CC(=O)OC(C)(C)C)c1nnc(C)n1-2 [NCGC00250412-19] | -34.6 |
| O=C1NC(=O)/C(=C\c2ccc(-c3ccc(F)cc3)o2)S1 + Cc1sc2c(c1C)C(c1ccc(Cl)cc1)=N[C@@H](CC(=O)OC(C)(C)C)c1nnc(C)n1-2 [NCGC00250412-19] | 168 |
| CC1=C(C(=O)O)N2C(=O)[C@@H](NC(=O)[C@H](N)C3=CCC=CC3)[C@H]2SC1 + Cc1sc2c(c1C)C(c1ccc(Cl)cc1)=N[C@@H](CC(=O)OC(C)(C)C)c1nnc(C)n1-2 [NCGC00250412-19] | -68.2 |
| Cc1cc(Nc2ncc3c(n2)N(C)C(=O)N(c2cc(NC(=O)c4cccc(C(F)(F)F)c4)ccc2C)C3)n(C)n1 + Cc1sc2c(c1C)C(c1ccc(Cl)cc1)=N[C@@H](CC(=O)OC(C)(C)C)c1nnc(C)n1-2 [NCGC00250412-19] | -200 |
| CC1(C)[C@H](C(=O)O)N2C(=O)C[C@H]2S1(=O)=O + Cc1sc2c(c1C)C(c1ccc(Cl)cc1)=N[C@@H](CC(=O)OC(C)(C)C)c1nnc(C)n1-2 [NCGC00250412-19] | 45.5 |
| CC(=O)O[C@@H]1[C@@H](OC(C)=O)[C@@H](O)[C@H](Oc2c(-c3ccc(O)cc3)oc3cc(O)cc(O)c3c2=O)O[C@H]1C + Cc1sc2c(c1C)C(c1ccc(Cl)cc1)=N[C@@H](CC(=O)OC(C)(C)C)c1nnc(C)n1-2 [NCGC00250412-19] | 171 |
| O=C(O)c1ccc(-c2c[nH]c3ncc(-c4ccccc4)cc23)cc1C1CCCC1 + Cc1sc2c(c1C)C(c1ccc(Cl)cc1)=N[C@@H](CC(=O)OC(C)(C)C)c1nnc(C)n1-2 [NCGC00250412-19] | -50.8 |
| Cc1cccc(Nc2nc(N[C@@H]3CCCC[C@@H]3N)ncc2C(N)=O)c1 + Cc1sc2c(c1C)C(c1ccc(Cl)cc1)=N[C@@H](CC(=O)OC(C)(C)C)c1nnc(C)n1-2 [NCGC00250412-19] | -24 |
| O=C(O)CNC(=O)c1c(O)c2ccccc2n(Cc2ccccc2)c1=O + Cc1sc2c(c1C)C(c1ccc(Cl)cc1)=N[C@@H](CC(=O)OC(C)(C)C)c1nnc(C)n1-2 [NCGC00250412-19] | -90.7 |

Pulled one by one from above (two):

| SMILES | excess over highest single agent |
| --- | --- |
| COc1ccc(OC)c(-c2nnc3ccc(-c4ccc(OC)c(O[C@@H]5CCOC5)c4)nn23)c1 + Cc1sc2c(c1C)C(c1ccc(Cl)cc1)=N[C@@H](CC(=O)OC(C)(C)C)c1nnc(C)n1-2 [NCGC00250412-19] | -99.4 |
| Cc1cc(Nc2ncc3c(n2)N(C)C(=O)N(c2cc(NC(=O)c4cccc(C(F)(F)F)c4)ccc2C)C3)n(C)n1 + Cc1sc2c(c1C)C(c1ccc(Cl)cc1)=N[C@@H](CC(=O)OC(C)(C)C)c1nnc(C)n1-2 [NCGC00250412-19] | -200 |
